Earlier results on 1 compound are cited in patent US7632813B2, “Bone densifying agent characterized by use of cathepsin K inhibitor with PTH” (Ono Pharmaceutical Co., Ltd., priority 2004, dated 2009).

The conditions of the data set: N Engl J Med 349, 1207-1215 and 1216-1226 (2003); cited from earlier work.

Turning to `NCCCC(O)(P(=O)(O)O)P(=O)(O)O` [ALN, Alendronate sodium hydrate], the “effect on increasing bone mineral density in combination with PTH, clinical” value is recorded as “does not show an effect in combination with PTH”.
